Reference: article PMC6039501
No constants are given. Whether binding was seen depends on the method and setting. In cells and extracts the contact can be indirect. Here binding means that the protein was enriched with, or labelled near, the bait; the list need not be complete.

By UniProt entry, the sequences of proteins in these tests, tags left out.
UniProt O15524: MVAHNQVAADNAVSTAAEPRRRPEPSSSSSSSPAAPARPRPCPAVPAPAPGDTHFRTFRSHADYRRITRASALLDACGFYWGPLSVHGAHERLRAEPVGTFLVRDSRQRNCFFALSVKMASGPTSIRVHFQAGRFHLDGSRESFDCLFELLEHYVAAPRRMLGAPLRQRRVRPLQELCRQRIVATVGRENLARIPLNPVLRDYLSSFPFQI

Molecular target: Myc-SOCS1 (suppressor of cytokine signalling-1) (UniProt O15524)
Assay: affinity purification with mass spectrometry; Myc-SOCS1 overexpressed in KG-1 cells; immunoprecipitation with a SOCS1-specific antibody, Protein A/G-Sepharose, 6 h at 4 °C; bands analysed by ion-trap MS

B1: CUE domain-containing 2 (CUEDC2), endogenous (protein, UniProt Q9H467 1-287)
chain: MELERIVSAALLAFVQTHLPEADLSGLDEVIFSYVLGVLEDLGPSGPSEENFDMEAFTEMMEAYVPGFAHIPRGTIGDMMQKLSGQLSDARNKENLQPQSSGVQGQVPISPEPLQRPEMLKEETRSSAAAAADTQDEATGAEEELLPGVDVLLEVFPTCSVEQAQWVLAKARGDLEEAVQMLVEGKEEGPAAWEGPNQDLPRRLRGPQKDELKSFILQKYMMVDSAEDQKIHRPMAPKEAPKKLIRYIDNQVVSTKGERFKDVRNPEAEEMKATYINLKPARKYRFH
- binding: binds
